Results are given in words; binding and its absence hold for the method and conditions named. Binding seen in cells or lysates may run through a third protein. Here binding means that the protein was enriched with, or labelled near, the bait; the list need not be complete.
B1: CPSF1 (protein, UniProt Q10570 1-1443)
chain: MYAVYKQAHPPTGLEFSMYCNFFNNSERNLVVAGTSQLYVYRLNRDAEALTKNDRSTEGKAHREKLELAASFSFFGNVMSMASVQLAGAKRDALLLSFKDAKLSVVEYDPGTHDLKTLSLHYFEEPELRDGFVQNVHTPRVRVDPDGRCAAMLVYGTRLVVLPFRRESLAEEHEGLVGEGQRSSFLPSYIIDVRALDEKLLNIIDLQFLHGYYEPTLLILFEPNQTWPGRVAVRQDTCSIVAISLNITQKVHPVIWSLTSLPFDCTQALAVPKPIGGVVVFAVNSLLYLNQSVPPYGVALNSLTTGTTAFPLRTQEGVRITLDCAQATFISYDKMVISLKGGEIYVLTLITDGMRSVRAFHFDKAAASVLTTSMVTMEPGYLFLGSRLGNSLLLKYTEKLQEPPASAVREAADKEEPPSKKKRVDATAGWSAAGKSVPQDEVDEIEVYGSEAQSGTQLATYSFEVCDSILNIGPCANAAVGEPAFLSEEFQNSPEPDLEIVVCSGHGKNGALSVLQKSIRPQVVTTFELPGCYDMWTVIAPVRKEEEDNPKGEGTEQEPSTTPEADDDGRRHGFLILSREDSTMILQTGQEIMELDTSGFATQGPTVFAGNIGDNRYIVQVSPLGIRLLEGVNQLHFIPVDLGAPIVQCAVADPYVVIMSAEGHVTMFLLKSDSYGGRHHRLALHKPPLHHQSKVITLCLYRDLSGMFTTESRLGGARDELGGRSGPEAEGLGSETSPTVDDEEEMLYGDSGSLFSPSKEEARRSSQPPADRDPAPFRAEPTHWCLLVRENGTMEIYQLPDWRLVFLVKNFPVGQRVLVDSSFGQPTTQGEARREEATRQGELPLVKEVLLVALGSRQSRPYLLVHVDQELLIYEAFPHDSQLGQGNLKVRFKKVPHNINFREKKPKPSKKKAEGGGAEEGAGARGRVARFRYFEDIYGYSGVFICGPSPHWLLVTGRGALRLHPMAIDGPVDSFAPFHNVNCPRGFLYFNRQGELRISVLPAYLSYDAPWPVRKIPLRCTAHYVAYHVESKVYAVATSTNTPCARIPRMTGEEKEFETIERDERYIHPQQEAFSIQLISPVSWEAIPNARIELQEWEHVTCMKTVSLRSEETVSGLKGYVAAGTCLMQGEEVTCRGRILIMDVIEVVPEPGQPLTKNKFKVLYEKEQKGPVTALCHCNGHLVSAIGQKIFLWSLRASELTGMAFIDTQLYIHQMISVKNFILAADVMKSISLLRYQEESKTLSLVSRDAKPLEVYSVDFMVDNAQLGFLVSDRDRNLMVYMYLPEAKESFGGMRLLRRADFHVGAHVNTFWRTPCRGATEGLSKKSVVWENKHITWFATLDGGIGLLLPMQEKTYRRLLMLQNALTTMLPHHAGLNPRAFRMLHVDRRTLQNAVRNVLDGELLNRYLYLSTMERSELAKKIGTTPDIILDDLLETDRVTAHF
B2: KIF23 (protein, UniProt Q02241 1-960)
chain: MKSARAKTPRKPTVKKGSQTNLKDPVGVYCRVRPLGFPDQECCIEVINNTTVQLHTPEGYRLNRNGDYKETQYSFKQVFGTHTTQKELFDVVANPLVNDLIHGKNGLLFTYGVTGSGKTHTMTGSPGEGGLLPRCLDMIFNSIGSFQAKRYVFKSNDRNSMDIQCEVDALLERQKREAMPNPKTSSSKRQVDPEFADMITVQEFCKAEEVDEDSVYGVFVSYIEIYNNYIYDLLEEVPFDPIKPKPPQSKLLREDKNHNMYVAGCTEVEVKSTEEAFEVFWRGQKKRRIANTHLNRESSRSHSVFNIKLVQAPLDADGDNVLQEKEQITISQLSLVDLAGSERTNRTRAEGNRLREAGNINQSLMTLRTCMDVLRENQMYGTNKMVPYRDSKLTHLFKNYFDGEGKVRMIVCVNPKAEDYEENLQVMRFAEVTQEVEVARPVDKAICGLTPGRRYRNQPRGPVGNEPLVTDVVLQSFPPLPSCEILDINDEQTLPRLIEALEKRHNLRQMMIDEFNKQSNAFKALLQEFDNAVLSKENHMQGKLNEKEKMISGQKLEIERLEKKNKTLEYKIEILEKTTTIYEEDKRNLQQELETQNQKLQRQFSDKRRLEARLQGMVTETTMKWEKECERRVAAKQLEMQNKLWVKDEKLKQLKAIVTEPKTEKPERPSRERDREKVTQRSVSPSPVPLSSNYIAQISNGQQLMSQPQLHRRSNSCSSISVASCISEWEQKIPTYNTPLKVTSIARRRQQEPGQSKTCIVSDRRRGMYWTEGREVVPTFRNEIEIEEDHCGRLLFQPDQNAPPIRLRHRRSRSAGDRWVDHKPASNMQTETVMQPHVPHAITVSVANEKALAKCEKYMLTHQELASDGEIETKLIKGDIYKTRGGGQSVQFTDIETLKQESPNGSRKRRSSTVAPAQPDGAESEWTDVETRCSVAVEMRAGSQLGPGYQHHAQPKRKKP

Sequences of proteins named here, by UniProt entry; tags and fusion partners are left off.
UniProt O00139: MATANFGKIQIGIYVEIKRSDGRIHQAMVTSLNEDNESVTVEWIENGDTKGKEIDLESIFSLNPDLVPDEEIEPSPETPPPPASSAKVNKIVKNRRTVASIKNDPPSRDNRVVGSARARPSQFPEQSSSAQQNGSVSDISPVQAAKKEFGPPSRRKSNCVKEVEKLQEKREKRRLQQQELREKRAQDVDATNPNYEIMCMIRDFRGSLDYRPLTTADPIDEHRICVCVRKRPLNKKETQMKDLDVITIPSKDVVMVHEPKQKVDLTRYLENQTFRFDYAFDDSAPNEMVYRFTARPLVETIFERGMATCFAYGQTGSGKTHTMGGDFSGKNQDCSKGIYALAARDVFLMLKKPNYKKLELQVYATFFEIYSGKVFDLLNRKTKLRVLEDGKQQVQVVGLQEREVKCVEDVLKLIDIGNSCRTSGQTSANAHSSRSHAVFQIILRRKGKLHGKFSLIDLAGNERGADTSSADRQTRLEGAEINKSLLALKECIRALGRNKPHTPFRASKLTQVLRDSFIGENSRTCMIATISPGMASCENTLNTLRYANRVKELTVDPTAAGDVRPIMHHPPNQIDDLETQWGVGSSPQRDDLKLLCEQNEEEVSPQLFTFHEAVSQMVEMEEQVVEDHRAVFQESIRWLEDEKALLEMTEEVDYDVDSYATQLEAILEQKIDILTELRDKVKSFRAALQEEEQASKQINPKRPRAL
UniProt O95235: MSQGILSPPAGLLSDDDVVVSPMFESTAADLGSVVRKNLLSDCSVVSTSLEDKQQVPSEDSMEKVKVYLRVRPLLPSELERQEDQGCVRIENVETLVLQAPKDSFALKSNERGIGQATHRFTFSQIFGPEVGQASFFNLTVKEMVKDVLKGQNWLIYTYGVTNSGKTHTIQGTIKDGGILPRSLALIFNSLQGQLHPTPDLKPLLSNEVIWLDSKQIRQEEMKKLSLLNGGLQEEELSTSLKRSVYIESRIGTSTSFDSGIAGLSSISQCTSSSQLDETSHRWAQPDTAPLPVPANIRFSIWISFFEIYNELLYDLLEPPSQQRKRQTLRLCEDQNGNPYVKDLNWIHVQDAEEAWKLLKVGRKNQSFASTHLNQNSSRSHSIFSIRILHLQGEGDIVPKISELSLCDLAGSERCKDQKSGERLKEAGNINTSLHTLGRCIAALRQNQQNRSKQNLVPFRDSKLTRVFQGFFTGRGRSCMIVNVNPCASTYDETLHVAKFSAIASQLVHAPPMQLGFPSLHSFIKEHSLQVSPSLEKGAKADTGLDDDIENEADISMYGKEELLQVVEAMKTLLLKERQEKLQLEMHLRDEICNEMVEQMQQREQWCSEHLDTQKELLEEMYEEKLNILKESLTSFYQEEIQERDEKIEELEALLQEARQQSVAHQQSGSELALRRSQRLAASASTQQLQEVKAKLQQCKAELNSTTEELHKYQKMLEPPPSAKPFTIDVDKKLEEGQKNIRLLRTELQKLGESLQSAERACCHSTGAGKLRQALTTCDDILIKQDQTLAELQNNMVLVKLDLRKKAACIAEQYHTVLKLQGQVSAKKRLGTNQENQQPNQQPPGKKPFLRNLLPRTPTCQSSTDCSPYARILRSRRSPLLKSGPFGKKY
UniProt O75367: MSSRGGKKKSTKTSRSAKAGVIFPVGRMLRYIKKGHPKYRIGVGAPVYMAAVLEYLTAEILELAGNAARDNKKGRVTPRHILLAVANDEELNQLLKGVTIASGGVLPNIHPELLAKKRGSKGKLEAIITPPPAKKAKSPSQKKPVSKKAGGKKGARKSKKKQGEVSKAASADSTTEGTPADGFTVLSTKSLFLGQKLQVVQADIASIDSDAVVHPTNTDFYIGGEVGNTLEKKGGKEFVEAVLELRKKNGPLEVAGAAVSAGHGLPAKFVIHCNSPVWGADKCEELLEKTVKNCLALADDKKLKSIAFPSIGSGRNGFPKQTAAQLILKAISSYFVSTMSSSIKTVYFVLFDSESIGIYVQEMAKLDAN
UniProt Q15021: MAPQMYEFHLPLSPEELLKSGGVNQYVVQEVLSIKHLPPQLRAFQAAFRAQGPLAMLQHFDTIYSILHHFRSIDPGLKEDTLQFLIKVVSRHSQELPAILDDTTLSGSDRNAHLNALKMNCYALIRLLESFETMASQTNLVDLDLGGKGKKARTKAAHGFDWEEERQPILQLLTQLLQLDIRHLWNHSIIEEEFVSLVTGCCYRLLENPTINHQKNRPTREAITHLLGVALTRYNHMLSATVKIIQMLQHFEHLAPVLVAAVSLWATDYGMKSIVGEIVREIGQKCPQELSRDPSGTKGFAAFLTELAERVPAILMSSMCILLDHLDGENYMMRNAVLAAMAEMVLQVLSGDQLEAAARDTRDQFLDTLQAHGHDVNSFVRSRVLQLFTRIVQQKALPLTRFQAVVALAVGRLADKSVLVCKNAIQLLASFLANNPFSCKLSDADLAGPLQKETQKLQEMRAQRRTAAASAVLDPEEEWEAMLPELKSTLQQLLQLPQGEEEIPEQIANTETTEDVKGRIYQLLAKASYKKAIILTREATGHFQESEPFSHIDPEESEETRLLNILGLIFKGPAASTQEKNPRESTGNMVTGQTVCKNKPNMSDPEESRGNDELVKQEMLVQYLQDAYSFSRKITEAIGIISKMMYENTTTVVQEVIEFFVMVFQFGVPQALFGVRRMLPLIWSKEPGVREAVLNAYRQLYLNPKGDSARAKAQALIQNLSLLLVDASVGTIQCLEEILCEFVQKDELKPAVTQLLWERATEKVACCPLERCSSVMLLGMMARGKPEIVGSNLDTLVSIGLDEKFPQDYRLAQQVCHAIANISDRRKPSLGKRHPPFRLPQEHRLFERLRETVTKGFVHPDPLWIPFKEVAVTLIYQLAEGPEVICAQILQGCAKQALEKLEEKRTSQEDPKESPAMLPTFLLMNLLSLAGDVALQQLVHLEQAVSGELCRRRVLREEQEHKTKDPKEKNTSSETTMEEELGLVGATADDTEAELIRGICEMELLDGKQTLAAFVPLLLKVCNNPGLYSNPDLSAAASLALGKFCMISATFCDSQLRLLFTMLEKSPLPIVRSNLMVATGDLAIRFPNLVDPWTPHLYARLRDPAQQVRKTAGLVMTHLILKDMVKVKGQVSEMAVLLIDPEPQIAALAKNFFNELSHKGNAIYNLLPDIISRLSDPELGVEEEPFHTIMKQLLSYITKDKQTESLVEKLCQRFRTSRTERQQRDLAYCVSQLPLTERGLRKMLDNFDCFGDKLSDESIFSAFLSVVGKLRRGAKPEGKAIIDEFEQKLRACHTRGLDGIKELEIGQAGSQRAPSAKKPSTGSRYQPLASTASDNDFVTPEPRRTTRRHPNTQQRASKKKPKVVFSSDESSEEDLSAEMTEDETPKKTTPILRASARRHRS
UniProt O95347: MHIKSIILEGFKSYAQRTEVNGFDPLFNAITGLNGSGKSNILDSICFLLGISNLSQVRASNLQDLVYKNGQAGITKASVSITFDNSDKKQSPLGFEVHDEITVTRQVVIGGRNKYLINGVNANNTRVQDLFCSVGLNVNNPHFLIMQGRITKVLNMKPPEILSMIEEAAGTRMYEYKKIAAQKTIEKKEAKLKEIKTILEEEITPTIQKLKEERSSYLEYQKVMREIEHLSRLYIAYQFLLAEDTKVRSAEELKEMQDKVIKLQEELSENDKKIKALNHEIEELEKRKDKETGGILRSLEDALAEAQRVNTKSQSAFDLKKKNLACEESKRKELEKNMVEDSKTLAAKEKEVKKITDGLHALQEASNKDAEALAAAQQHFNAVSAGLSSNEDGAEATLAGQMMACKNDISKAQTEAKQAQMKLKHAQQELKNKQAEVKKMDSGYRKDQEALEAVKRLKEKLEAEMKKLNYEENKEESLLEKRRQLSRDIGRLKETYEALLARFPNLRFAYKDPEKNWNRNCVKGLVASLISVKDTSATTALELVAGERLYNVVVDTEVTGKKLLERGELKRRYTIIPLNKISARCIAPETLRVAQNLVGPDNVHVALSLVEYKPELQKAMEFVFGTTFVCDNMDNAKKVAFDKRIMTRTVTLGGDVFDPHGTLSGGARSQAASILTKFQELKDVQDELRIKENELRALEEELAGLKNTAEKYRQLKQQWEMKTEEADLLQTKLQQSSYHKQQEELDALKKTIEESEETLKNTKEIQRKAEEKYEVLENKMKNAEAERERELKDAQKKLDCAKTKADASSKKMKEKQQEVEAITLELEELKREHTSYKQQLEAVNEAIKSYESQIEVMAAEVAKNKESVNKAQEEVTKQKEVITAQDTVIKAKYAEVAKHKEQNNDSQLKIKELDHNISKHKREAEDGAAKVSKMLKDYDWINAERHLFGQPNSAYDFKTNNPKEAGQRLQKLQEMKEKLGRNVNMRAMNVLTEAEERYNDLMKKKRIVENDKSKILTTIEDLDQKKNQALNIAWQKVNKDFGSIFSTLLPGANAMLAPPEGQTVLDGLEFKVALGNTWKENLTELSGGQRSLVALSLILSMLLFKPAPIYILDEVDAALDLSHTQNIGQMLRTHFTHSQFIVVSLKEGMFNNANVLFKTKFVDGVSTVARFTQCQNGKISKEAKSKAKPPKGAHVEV
UniProt Q9NTJ3: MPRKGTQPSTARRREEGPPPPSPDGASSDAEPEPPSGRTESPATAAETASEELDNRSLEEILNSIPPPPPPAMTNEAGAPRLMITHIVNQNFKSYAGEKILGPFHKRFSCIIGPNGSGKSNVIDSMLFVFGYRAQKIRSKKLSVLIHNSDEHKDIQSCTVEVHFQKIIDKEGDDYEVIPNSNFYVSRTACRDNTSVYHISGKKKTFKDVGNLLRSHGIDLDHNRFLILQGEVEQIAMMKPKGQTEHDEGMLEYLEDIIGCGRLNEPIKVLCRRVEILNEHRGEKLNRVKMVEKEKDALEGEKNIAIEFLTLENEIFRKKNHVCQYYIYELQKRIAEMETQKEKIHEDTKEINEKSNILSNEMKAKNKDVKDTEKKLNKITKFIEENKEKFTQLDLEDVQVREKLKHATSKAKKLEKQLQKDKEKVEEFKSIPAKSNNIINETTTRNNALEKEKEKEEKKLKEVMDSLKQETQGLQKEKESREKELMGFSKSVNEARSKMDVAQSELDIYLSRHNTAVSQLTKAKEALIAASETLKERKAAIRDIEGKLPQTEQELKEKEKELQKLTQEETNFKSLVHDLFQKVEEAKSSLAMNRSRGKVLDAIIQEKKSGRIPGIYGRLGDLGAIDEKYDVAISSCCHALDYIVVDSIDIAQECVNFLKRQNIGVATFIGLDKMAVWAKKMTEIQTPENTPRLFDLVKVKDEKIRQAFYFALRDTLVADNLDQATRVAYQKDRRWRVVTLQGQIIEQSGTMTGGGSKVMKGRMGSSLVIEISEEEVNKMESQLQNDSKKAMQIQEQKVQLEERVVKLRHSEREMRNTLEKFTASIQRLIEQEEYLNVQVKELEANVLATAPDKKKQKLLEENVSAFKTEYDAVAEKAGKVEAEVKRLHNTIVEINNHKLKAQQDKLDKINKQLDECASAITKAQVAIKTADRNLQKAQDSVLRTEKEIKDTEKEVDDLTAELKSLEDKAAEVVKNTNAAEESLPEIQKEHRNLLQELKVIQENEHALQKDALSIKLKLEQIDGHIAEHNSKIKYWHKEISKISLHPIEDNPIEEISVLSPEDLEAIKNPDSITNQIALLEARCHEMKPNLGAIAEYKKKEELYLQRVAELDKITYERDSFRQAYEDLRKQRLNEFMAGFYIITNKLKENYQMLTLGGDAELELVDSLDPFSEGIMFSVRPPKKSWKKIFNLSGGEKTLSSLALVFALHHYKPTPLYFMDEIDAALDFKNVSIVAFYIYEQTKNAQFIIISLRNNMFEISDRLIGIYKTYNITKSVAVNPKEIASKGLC
UniProt Q9ULW0: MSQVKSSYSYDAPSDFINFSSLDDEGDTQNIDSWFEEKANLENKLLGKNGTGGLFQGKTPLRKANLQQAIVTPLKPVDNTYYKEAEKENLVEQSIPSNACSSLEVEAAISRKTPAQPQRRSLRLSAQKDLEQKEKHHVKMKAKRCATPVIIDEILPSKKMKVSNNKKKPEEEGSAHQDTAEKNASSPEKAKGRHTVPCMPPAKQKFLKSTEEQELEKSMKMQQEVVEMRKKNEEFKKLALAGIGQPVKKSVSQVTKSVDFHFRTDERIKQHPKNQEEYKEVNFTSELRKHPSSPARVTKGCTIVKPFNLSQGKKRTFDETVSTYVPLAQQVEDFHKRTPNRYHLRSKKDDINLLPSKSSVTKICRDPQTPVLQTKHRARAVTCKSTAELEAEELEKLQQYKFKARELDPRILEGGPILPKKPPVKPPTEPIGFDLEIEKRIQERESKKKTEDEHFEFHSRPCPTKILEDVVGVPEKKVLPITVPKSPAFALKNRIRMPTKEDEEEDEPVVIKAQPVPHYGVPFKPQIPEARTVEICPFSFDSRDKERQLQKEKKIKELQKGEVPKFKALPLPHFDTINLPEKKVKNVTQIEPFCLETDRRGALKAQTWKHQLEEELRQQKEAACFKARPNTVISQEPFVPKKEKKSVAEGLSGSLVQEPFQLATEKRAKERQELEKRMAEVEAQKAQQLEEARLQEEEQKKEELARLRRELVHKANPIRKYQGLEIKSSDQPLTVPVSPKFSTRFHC

target: T1, Cytoskeleton Associated Protein-2 (CKAP2) (human (endogenous in RPE1)) (UniProt Q8WWK9); assay: affinity purification with mass spectrometry
T1 sequence: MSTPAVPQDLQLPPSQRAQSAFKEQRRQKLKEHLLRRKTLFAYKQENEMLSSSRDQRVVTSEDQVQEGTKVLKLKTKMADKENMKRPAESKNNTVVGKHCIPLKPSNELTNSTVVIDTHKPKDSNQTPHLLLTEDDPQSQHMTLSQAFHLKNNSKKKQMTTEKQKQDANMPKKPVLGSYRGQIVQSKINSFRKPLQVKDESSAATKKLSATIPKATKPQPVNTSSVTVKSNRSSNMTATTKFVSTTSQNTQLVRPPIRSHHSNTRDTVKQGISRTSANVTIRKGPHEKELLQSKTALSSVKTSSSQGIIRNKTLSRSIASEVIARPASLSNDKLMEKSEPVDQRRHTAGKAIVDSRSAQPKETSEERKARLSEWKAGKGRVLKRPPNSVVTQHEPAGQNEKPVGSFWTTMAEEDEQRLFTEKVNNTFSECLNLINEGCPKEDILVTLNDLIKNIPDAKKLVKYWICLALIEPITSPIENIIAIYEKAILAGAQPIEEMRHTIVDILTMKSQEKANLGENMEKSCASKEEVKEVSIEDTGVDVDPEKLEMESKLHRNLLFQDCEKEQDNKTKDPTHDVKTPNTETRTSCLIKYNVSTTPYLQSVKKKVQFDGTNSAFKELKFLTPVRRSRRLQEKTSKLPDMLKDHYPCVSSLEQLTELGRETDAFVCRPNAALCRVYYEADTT

Question: For KI67 (from UniProt P46013 1-3256), which binding is on record?
Answer: The binding was “binds”.

Question: Which binding does the source give for KIF2A (from UniProt O00139 1-706) here?
Answer: Its binding is “binds”.

Question: KIF20A (from UniProt O95235 1-890) was tested. Which binding did it give?
Answer: Its binding is “binds”.

Question: Which binding does the source give for MACROH2A1 (from UniProt O75367 1-369) here?
Answer: Its binding is “binds”.

Question: With NCAPD2 (from UniProt Q15021 1-1401) as the molecule, how does the binding read?
Answer: Its binding is “binds”.

Question: Which binding does the source give for NCAPH (from UniProt Q15003 1-741) here?
Answer: The binding was “binds”.

Question: For SMC2 (from UniProt O95347 1-1197), which binding is on record?
Answer: Its binding is “binds”.

Question: Which binding does the source give for SMC4 (from UniProt Q9NTJ3 1-1288) here?
Answer: The binding was “binds”.

Question: With TPX2 (from UniProt Q9ULW0 1-747) as the molecule, how does the binding read?
Answer: The binding was “binds”.

Question: With TXLNA (from UniProt P40222 1-546) as the molecule, how does the binding read?
Answer: Its binding is “binds”.

Question: How did the binding turn out when B1 was run?
Answer: Its binding is “binds”.

Question: For B2, which binding is on record?
Answer: The binding was “binds”.

— publication doi:10.1101/2025.09.09.675182
